Source: the supplement of paper PMC5949888
Most values lie at the floor of the assay. Slopes are relative: functional sequences can read slightly below zero.

system: Saccharomyces cerevisiae PS128 hsf1 delta, HSF1(1-493) fusion; test: growth estimate (transactivation domain function in HSF1 fusion, heat-shock survival) (a.u. (slope of normalised read count over time)); higher = stronger growth at 37°C, i.e. more transactivation activity; details: library: random library
Description: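 Random 60-nt DNA library encoding peptides of up to 20 aa, fused to the C-terminus of yeast HSF1 residues 1-493 (C-terminal TAD deleted) and expressed from the native HSF1 promoter on a CEN plasmid in hsf1-deleted S. cerevisiae PS128. Cells were selected at 37°C on -trp 5-FOA plates for 0, 2, 4, 6 and 8 days and amplicons were sequenced. Growth estimate is the slope of a robust linear fit of total-sum-normalised read counts (normalised to the first time point) over time, using at least 2 replicates. Sequences are classed functional (TAD activity) above a threshold of -0.13, set from stop-codon control sequences.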

Row | Substance | growth estimate
1 | GAAVV | < -0.25
2 | GGIRQRYVRRYGT | < -0.25
3 | LEKAYAVTVKAPSW | < -0.25
4 | IRGRFTRRVAV | < -0.25
5 | GVTEEAPIAIW | < -0.25
6 | TYLC | < -0.25
7 | ADRWITSLVPHPIHLARKL | < -0.25
8 | RTSVTC | < -0.25
9 | TGTIKRRYPK | < -0.25
10 | RTLTVTGSHWLRFFLDGSLL | < -0.25
11 | SPDGVRVFFVSSRFV | < -0.25
12 | PGNL | < -0.25
13 | QSAGGTRAVNDPLTTRVDLP | < -0.25
14 | QFLMRTHCKLYGSNDMRSQH | < -0.25
15 | LSTGLQPRGEETFGIRLATG | < -0.25
16 | WYGEDPGRPEFLSLDQVSST | < -0.25
17 | SDREVFSKNVQEGS | < -0.25
18 | LRVHPPNWKYFLATVVIEQG | < -0.25
19 | KGPSLCVPGLLPPVQLGKWN | < -0.25
20 | YAGGLAYLLMRAL | < -0.25
21 | AVGKE | < -0.25
22 | IAAVKYLNRFK | < -0.25
23 | FWMGCLI | < -0.25
24 | ASTTSV | < -0.25
25 | NSAGHLLAR | < -0.25
26 | YHVAKVNIGSALGKSSRSRP | < -0.25
27 | HELTVLQTSPHGPVCSCRPM | < -0.25

Row | Substance | growth estimate
28 | AGADRVRSCET | < -0.25
29 | VRQQMGKCLEPREILT | < -0.25
30 | VSAGSPL | < -0.25
31 | PGSHSQTMGRD | < -0.25
32 | LTLPGVLLAAVSTGRRRGRA | < -0.25
33 | RDPAVEYRWGPAFLQTVRAE | < -0.25
34 | FPAGYYARARSNSSGEPRDC | < -0.25
35 | VCRYLSFWGRSIPTREL | < -0.25
36 | SSGNCASPHGSRSPILVVRS | < -0.25
37 | RQERCMLGNYSVTVNSMRDV | < -0.25
38 | AGTTEMGGTRASIRRTISAV | < -0.25
39 | PQNWDTALGLDEGVGYGQGQ | -0.245
40 | KRLFTCYRVCPIKYHSLIMA | < -0.25
41 | GIMFGRHSGQFM | < -0.25
42 | YATRLVLSKGG | < -0.25
43 | SRIR | < -0.25
44 | RLGIVQTISM | < -0.25
45 | YPPTRWEFRTCSNVIAYRSR | < -0.25
46 | AVTGTLLLYLSE | < -0.25
47 | GQGER | < -0.25
48 | QQLDTHEAPVASSPCVVSHV | < -0.25
49 | SKYCALLTRKRHRKQGGTRP | < -0.25
50 | MGYRHRRLQGSKTQSILLSF | < -0.25
51 | PSLYRGTTPGHFEATTTGRY | < -0.25
52 | QYPKCCCAAPAP | < -0.25
53 | HVAFIVSVTWA | < -0.25
54 | MELGIF | < -0.25

Row | Substance | growth estimate
55 | HTQSITAI | < -0.25
56 | RRFTPSALLLGMKRY | < -0.25
57 | WNMSR | < -0.25
58 | LWMVCSRS | < -0.25
59 | CPNGNCGLCWGITEG | < -0.25
60 | SRRRRHHSTEGRL | < -0.25
61 | VTHKIVTRGCQTNLVDSRPI | < -0.25
62 | DVILGKTLQPHAGLIIRDPT | < -0.25
63 | FQVNRRKALPVAVPVKGAIS | < -0.25
64 | GSPVARGP | < -0.25
65 | FRSRQDLGQLENARGQVDTA | < -0.25
66 | NDTVAENVVSVHTSRCLLFS | < -0.253
67 | RVGESQPCSFRTFTRSARRP | < -0.25
68 | LHYHW | < -0.25
69 | HFLFGP | < -0.25
70 | LLGTHDRGARRILRYRSPVE | -0.243
71 | RPAVATLVSYDSLAEIVGTK | -0.246
72 | HEGVQLLGTLAVANGANIPF | < -0.25
73 | VPVKEPPNATCSTSSTFGIR | < -0.25
74 | VIEVLTGPDDRSVKASYTSP | < -0.25
75 | CNGAHAEPKSLSVD | -0.246
76 | LPPYNL | < -0.25
77 | SGGSRPKSVTG | < -0.25
78 | GQYVVDSTSTSLNGQGKALD | < -0.25
79 | FCREVLKQVGGAGLTGDREP | < -0.25
80 | RDVLPGRYDALPSRSG | < -0.25

3 entries from above, set out differently:
Row	Substance	growth estimate
56	RRFTPSALLLGMKRY	< -0.25
71	RPAVATLVSYDSLAEIVGTK	-0.246
79	FCREVLKQVGGAGLTGDREP	< -0.25
